We go through 2 molecules from PMC9963953, “Structures of MPND Reveal the Molecular Recognition of Nucleosomes”.

Assay [1] addresses apo–MPND(54–163) (Mus musculus) (UniProt Q3TV65). Kind of assay: SAXS; apo–MPND54–163 at a range of concentrations (1.25 mg/mL shown), 20 mM HEPES pH 7.2, 100 mM NaCl, 2 mM β-mercaptoethanol; FoXS profiles and minimal ensemble search of monomer and dimers; both purified.
Assay [2] deals with apo–MPND (residues 2–160) (Mus musculus) (UniProt Q3TV65). Kind of assay: crystal structure; apo–MPND (residues 2–160), space group P212121, 2.06 Å; two protomers in the asymmetric unit; both purified.

Results are given in words; binding and its absence hold for the method and conditions named. Some entries that bind do so weakly or less than the wild type.

B1: apo–MPND(54–163) (domain or fragment, UniProt Q3TV65 54-163)
chain: MALGGALTRRAVTLRVLLKDELLEPGEGVLSIYYLGRKFTGDLQLDGRIVWQETGQVFNSPSAWATHCKKLVNPAKKSGCGWASVKYKGQKLDKYKAAWLRRHQLHMPVA
As for B1, the binding result in assay [1] was “binds weakly”.

B2: apo–MPND (residues 2–160) (domain or fragment, UniProt Q3TV65 2-160)
chain: AAPESLSPGATAEEAPEEDEDDAEAEDPERGTGSGGRSGSLGGSGGGTAGPGMALGGALTRRAVTLRVLLKDELLEPGEGVLSIYYLGRKFTGDLQLDGRIVWQETGQVFNSPSAWATHCKKLVNPAKKSGCGWASVKYKGQKLDKYKAAWLRRHQLHM
Consider B2, for which the binding entry in assay [2] is listed as “binds weakly”.
